Results deposited as PubChem BioAssay AID1259293 (Sanger Institute, 2017).
The deposit covers 160 reagents; shown is a part drawn at random. Of all reagents, 46 (29%) were called active. 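The method behind the synergy score is not described; each call refers to one siRNA in a single cell line.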 A number with no mark means an inactive call. Viability is capped at 1. Not given: the amount of reagent, the time to read-out.

Aim: 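Kinase knock-downs that boost cell killing by PI3K, EGFR or MEK drugs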 (follow-up of hits)
Cell system: human NCI-H716 colorectal cancer cells
Knock-down reagent: single siRNA against human genes
Conditions: anchor drugs BYL719 at 1 µM, cetuximab at 5 µg/ml or trametinib at 10 nM, or DMSO vehicle alone
Detection: 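For every anchor drug, viability versus control pool 2 (non-targeting) and a synergy score of drug with siRNA, each a replicate average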
Scale: synergy score with BYL719 and synergy score with cetuximab and synergy score with trametinib: higher = stronger synthetic lethal effect with drug; viability, siRNA alone in vehicle: higher = more cells survive knock-down
Call rule: 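An siRNA is active if its synergy score is above 0.10 for one or more of the three anchor drugs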
Meaning of the calls: active = synergy with at least one drug; inactive = no synergy with any drug

| gene knocked down | PubChem SID | synergy score with BYL719 | synergy score with cetuximab | synergy score with trametinib | viability, siRNA alone in vehicle (fraction of control) |
| --- | --- | --- | --- | --- | --- |
| MAPKAPK2 | SID56475927 | 0.182 (active) | -0.109 | -0.303 | 1 |
| MAPKAPK2 | SID56475928 | -0.179 | -0.109 | -0.469 | 1 |
| MAPKAPK2 | SID56475929 | -0.0162 (active) | -0.0847 | 0.242 | 0.878 |
| MAPKAPK2 | SID56475930 | -0.179 | -0.109 | 0.0668 | 1 |
| EPHA6 | SID56477259 | 0.00227 (active) | -0.0451 | 0.133 | 0.715 |
| EPHA6 | SID56477260 | 0.128 (active) | 0.0244 | 0.132 | 1 |
| EPHA6 | SID56477261 | -0.0845 | 0.0206 | -0.0943 | 0.41 |
| EPHA6 | SID56477262 | 0.0843 (active) | -0.109 | 0.11 | 1 |
| SF3B1 | SID152148776 | 0.0276 | 0.0464 | -0.0512 | 0.573 |
| SF3B1 | SID152150545 | 0.115 (active) | 0.209 | 0.0793 | 0.573 |
| SF3B1 | SID152153930 | -0.0244 | -0.0735 | -0.336 | 1 |
| SF3B1 | SID152156441 | 0.0466 | -0.00329 | -0.0715 | 0.371 |

Next part; the last 3 above are carried over.
| gene knocked down | PubChem SID | synergy score with BYL719 | synergy score with cetuximab | synergy score with trametinib | viability, siRNA alone in vehicle (fraction of control) |
| --- | --- | --- | --- | --- | --- |
| SF3B1 | SID152150545 | 0.115 (active) | 0.209 | 0.0793 | 0.573 |
| SF3B1 | SID152153930 | -0.0244 | -0.0735 | -0.336 | 1 |
| SF3B1 | SID152156441 | 0.0466 | -0.00329 | -0.0715 | 0.371 |
| IRAK3 | SID56476711 | -0.222 | -0.0879 | -0.227 | 0.508 |
| IRAK3 | SID56476712 | -0.441 | -0.107 | -0.0478 | 0.682 |
| IRAK3 | SID56476713 | -0.306 | -0.223 | -0.139 | 0.551 |
| IRAK3 | SID56476714 | -0.0137 | -0.335 | -0.0695 | 0.682 |
| GRK5 | SID56476519 | -0.325 | -0.266 | -0.266 | 0.823 |
| GRK5 | SID56476520 | -0.179 | -0.109 | 0.0342 | 1 |
| GRK5 | SID56476521 | -0.188 | 0.0127 | 0.0718 | 0.682 |
| GRK5 | SID56476522 | 0.167 (active) | -0.0362 | 0.194 | 0.932 |
| SYNCRIP | SID134270601 | -0.179 | -0.109 | -0.303 | 1 |
| SYNCRIP | SID134270602 | 0.226 (active) | 0.22 | 0.252 | 1 |
| SYNCRIP | SID134270603 | -0.191 | -0.394 | -0.216 | 0.201 |
| SYNCRIP | SID134270604 | -0.259 | -0.317 | -0.0196 | 0.715 |
